In PubChem BioAssay AID463183 (Sanford-Burnham Center for Chemical Genomics, 2010):
The other results are listed elsewhere or left out. The main result of the screen is listed elsewhere. These columns were measured beside it and carry no call. Compounds called inactive in the main read-out are mostly missing here.

Experiment: blockers of oleate-driven lipid droplets in liver cells – imaging, AML12 mouse hepatocytes, single concentration, high-content, confirmation (AID 463183);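 also: cells counted after overnight compound exposure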
Conditions: BODIPY lipid droplet imaging, measured here: cell count, cytotoxicity, at 5.2 µM, droplets induced with 100 µM oleic acid

Cc1cccc(NC(=O)Cc2coc3ccc4ccccc4c23)n1
cell count: 1640 cells

O=C(NCc1ccco1)c1ccc(Cn2c(=O)c3ccccc3n(Cc3ccc(Cl)cc3)c2=O)cc1
cell count: 1510 cells

CSc1nc2ccccc2n1CC(=O)Nc1c(C)cccc1C
cell count: 1590 cells

COc1ccc(C(=O)O/N=C(\N)c2ccccn2)cc1
cell count: 1550 cells

CCC1=NN=C(c2ccc(F)cc2)C(c2c[nH]c3ccccc23)N1O (stereo not drawn)
cell count: 1640 cells

COc1cc(C2N3CC4(C)CN2CC(C)(C3)C4)ccc1O (stereo not drawn)
cell count: 1690 cells

COc1ccccc1N1CCN(C(=O)Cn2ncc3c([nH]c4ccccc43)c2=O)CC1
cell count: 1680 cells

O=C(CSc1nc(-c2ccco2)cc(C(F)(F)F)n1)Nc1ccc(C(=O)N2CCOCC2)cc1
cell count: 1600 cells

CCCOc1ccc(/C=N/Nc2ccccc2[N+](=O)[O-])c(O)c1
cell count: 1640 cells

Oc1ccc2ccccc2c1N=Nc1ccccc1F
cell count: 1460 cells

Cc1ccc(C)c(NC(=O)Cn2cc(C(=O)C3CC3)c3ccccc32)c1
cell count: 1600 cells

COc1cccc(CNC(=O)CCCc2c[nH]c3ccccc23)c1
cell count: 1600 cells

CCN1CCN(c2cc(C)c3cc(NC(=O)CCC(=O)Nc4ccc(OC)cc4OC)ccc3n2)CC1
cell count: 1600 cells

CCCCCCNC(=O)c1cn(CC)c2cc(N3CCN(C)CC3)c(F)cc2c1=O
cell count: 1520 cells

CCCCNC(=O)C1CCN(C(=O)Nc2ccc(C)cc2)CC1
cell count: 1470 cells

Cc1cc(C(=O)NC2CCCc3c2cnn3-c2ccc(C)c(C)c2)nc(C)n1 (stereo not drawn)
cell count: 1640 cells

CCOc1ccccc1NC(=O)CCCNC(=O)c1ccc(Cl)cc1
cell count: 1620 cells

Cc1cc(=O)oc2cc(OCC(=O)NCCCN3CCCC3=O)ccc12
cell count: 1630 cells

COc1ccc(C(=O)OCC(=O)NC(C)CCc2ccccc2)c(OC)c1 (stereo not drawn)
cell count: 1590 cells

COc1ccc(OC)c(/C=C/C(=O)N(C)CC(=O)Nc2ccc(C)cc2)c1
cell count: 1580 cells

CCOc1ccc(NS(=O)(=O)c2ccc(C(=O)N3CCCCC3)cc2)cc1
cell count: 1630 cells

COc1ccc(Cl)c(NC(=O)C/C(C)=N/NC(=O)CCc2ccccc2)c1
cell count: 1600 cells

O=C(Cc1cccc2ccccc12)Nc1nc(-c2cccc([N+](=O)[O-])c2)cs1
cell count: 1650 cells

O=C(NCCc1ccccc1)c1oc2ccccc2c1COc1ccccc1
cell count: 1530 cells

CCOc1ccc(CCNC(=O)COC(=O)/C=C/c2ccc(C)o2)cc1OCC
cell count: 1660 cells

CCOc1ccc2c(c1)-c1c(ssc1=S)C(C)(C)N2C(=O)CSC1=NCCS1
cell count: 1560 cells

Cc1cc(N2CCN(C)CC2)n2nc(-c3ccc(Cl)cc3)nc2n1
cell count: 1550 cells

CCc1ccc(NC(=O)C(C)OC(=O)c2ccc(N3CCCC3)c([N+](=O)[O-])c2)cc1 (stereo not drawn)
cell count: 1630 cells

O=C(CCNC(=O)C1CCN(S(=O)(=O)c2ccccc2)CC1)NCc1ccc(Cl)cc1Cl
cell count: 1630 cells

CCN1C(=O)/C(=C2\C=Cc3cc(C)ccc3N2CC)OC1=S
cell count: 1670 cells

CCOC(=O)c1ccc(N2CCN(c3ccccc3F)CC2)c(NC(=O)Nc2ccccc2)c1
cell count: 1600 cells

CCOc1ccccc1NC(=O)N1CCCC1C(=O)Nc1ccc(-n2cnnn2)c(C)c1 (stereo not drawn)
cell count: 1660 cells

CCCOC(=O)c1ccc(NC(=O)c2ccc(Br)o2)cc1
cell count: 1660 cells

O=C(COC(=O)COc1ccc(Cl)cc1Cl)Nc1cccnc1Cl
cell count: 1650 cells

COc1cccc(N=CC=C2OC(C)(C)C(C)(C)O2)c1
cell count: 1630 cells

O=C(NCc1ccc2c(c1)OCO2)c1cc(-c2ccccc2)c(N2CCOCC2)s1
cell count: 1620 cells

O=C(NCc1cccs1)C1CCC(CNS(=O)(=O)c2cccs2)CC1 (stereo not drawn)
cell count: 1640 cells

CCC(NC(=O)c1cc(COc2cncc(Cl)c2)on1)c1ccncc1 (stereo not drawn)
cell count: 1600 cells

CCOc1ccc(CCNC(=O)COC(=O)c2cccnc2OCC)cc1OCC
cell count: 1660 cells

CC1CCCN(C2=C(NS(=O)(=O)c3ccc(Br)cc3)C(=O)c3ccccc3C2=O)C1 (stereo not drawn)
cell count: 1620 cells

Cc1nnc(SCC(=O)Nc2cc(-c3cc(C)c(C)cc3C)nn2-c2ccccc2)s1
cell count: 1570 cells

CC(Sc1nnc(-c2ccccc2)c(-c2ccccc2)n1)C(=O)N1CCc2ccccc21 (stereo not drawn)
cell count: 1610 cells

CCOc1ccc(CCNC(=O)COC(=O)c2cc([N+](=O)[O-])ccc2N2CCOCC2)cc1OCC
cell count: 1600 cells

COc1ccc(C(=O)Nc2sc3c(c2C(=O)NCc2ccco2)CCCC3)cc1OC
cell count: 1580 cells

CCOC(=O)c1cc(CC)sc1NC(=O)C1CC(=O)NN1Cc1ccccc1 (stereo not drawn)
cell count: 1690 cells

CCCCOc1ccc(C(C)NC(=O)CCS(=O)(=O)Cc2ccc(C)cc2)cc1 (stereo not drawn)
cell count: 1600 cells

CCOc1ccc(NC(=O)CN(C)c2ccc(S(=O)(=O)N(C(C)C)C(C)C)cn2)cc1OCC
cell count: 1620 cells

Cc1ccc(C(=O)CC2(O)C(=O)N(CCc3ccccc3)c3ccc(Br)cc32)o1 (stereo not drawn)
cell count: 1670 cells

c1ccc(NCc2ccncc2)cc1
cell count: 1560 cells

O=C(CSCC(=O)N1CCCc2ccccc21)Nc1nc(-c2ccccc2)cs1
cell count: 1620 cells

COc1cc(NC(=O)c2oc3ccccc3c2C)ccc1NC(=O)c1ccco1
cell count: 1610 cells

CCOC(=O)c1c(C)[nH]c(C)c1S(=O)(=O)N1CCN(c2ccc([N+](=O)[O-])cc2)CC1
cell count: 1640 cells

c1cc2c(cc1-c1csc(NNC3=NCCCCC3)n1)OCCO2
cell count: 1590 cells

CCOc1ccc(-n2c(SCC(=O)Nc3ccc(CC)cc3)nc3n[nH]c(C)c3c2=N)cc1
cell count: 1640 cells

Cc1cc(C(=O)N[C@@H](c2ccccc2)[C@]2(C)C[C@H]2[C@@H](C)C(=O)Nc2ccc3ccccc3c2)no1
cell count: 1600 cells

COC(=O)COc1cccc(NC(=O)c2ccc(Cl)cc2)c1
cell count: 1550 cells

CC1CC(C)CN(C(=O)CSCC(=O)Nc2nc(-c3cccs3)cs2)C1 (stereo not drawn)
cell count: 1540 cells

CCOc1ccccc1NC(=O)CSc1nnc(Cn2c(=O)sc3ccccc32)n1C
cell count: 1610 cells

CCn1cc([N+](=O)[O-])c(C(=O)N2N=C(c3ccc4ccccc4c3)CC2c2ccccc2O)n1 (stereo not drawn)
cell count: 1610 cells

COc1ccc(Cl)cc1NC(=O)Nc1ccc(C(=O)N2CCCC2)cc1
cell count: 1660 cells

Cc1ccc(NC(=O)CCCc2c[nH]c3ccccc23)nc1
cell count: 1590 cells

CCOc1ccc(CCNC(=O)Cn2nc(C)n3cccc3c2=O)cc1OCC
cell count: 1560 cells

O=c1[nH]c(CSc2nnc(-c3ccccc3)n2-c2ccccc2)nc2ccccc12
cell count: 1640 cells

Cc1[nH]n(-c2ccccc2)c(=O)c1N=Nc1ccc(C(=O)O)cc1
cell count: 1650 cells

CCCCc1ccc(NC(=O)CSc2nnc(C)c(=O)n2N)cc1
cell count: 1560 cells

COc1cc(/C=C\C(=O)OCn2nnc3ccccc3c2=O)cc(OC)c1OC
cell count: 1670 cells

CCN1CCN(c2c(/C=C3\SC(=S)N(Cc4ccco4)C3=O)c(C)c(C#N)c(=O)n2C)CC1
cell count: 1590 cells

O=[N+]([O-])c1cc2c(c(CSc3nnc(Nc4ccccc4)s3)c1)OCOC2
cell count: 1660 cells

CCOc1ccc(CCNC(=O)c2cccs2)cc1OCC
cell count: 1550 cells

CC(=O)c1cccc(N=Nc2c(-c3ccccc3)[nH]n(-c3ccccc3)c2=O)c1
cell count: 1680 cells

CCNc1nc(N)c(C(=O)c2ccc(Cl)s2)s1
cell count: 1570 cells

COc1cccc(CNS(=O)(=O)c2ccc(S(=O)(=O)NC3CC3)cc2)c1
cell count: 1610 cells

CSc1ccccc1NC(=O)C1=CC(c2cccs2)=NS(=O)(=O)N1C
cell count: 1610 cells

CCOc1ccc(NS(=O)(=O)c2ccc(C(=O)N3CCC3)cc2)cc1
cell count: 1640 cells

COc1ccc(-c2cnc(SCC(=O)Nc3nc(C(C)(C)C)cs3)n2Cc2ccco2)cc1
cell count: 1560 cells

COc1cccc(N2CCN(CC(=O)Nc3nnc(-c4ccccc4)s3)CC2)c1
cell count: 1560 cells

Cc1ccc(S(=O)(=O)NCc2ccc(C(=O)NC3CC3)cc2)cc1
cell count: 1630 cells

CCOc1ccccc1NC(=O)N1CCCC1C(=O)NCc1cccs1 (stereo not drawn)
cell count: 1620 cells
